These are yes or no findings as the source states them, for the method shown. Some binding calls cover weakened binding; strength is not graded here. Blank lines part the entries; values can stand above or below the binder they belong to.
Tests used:
[1] = molecular target: human Siglec-9 protein (recombinant; construct not stated) (human) (UniProt Q9Y336); assay: BLI, antibody in Fab format at 250 nM
[2] = molecular target: T1, truncated version of Siglec-9 that only contains the V domain (human) (UniProt Q9Y336); assay: ELISA on truncated Siglec-9 (V domain only), hybridoma screening
T1 sequence: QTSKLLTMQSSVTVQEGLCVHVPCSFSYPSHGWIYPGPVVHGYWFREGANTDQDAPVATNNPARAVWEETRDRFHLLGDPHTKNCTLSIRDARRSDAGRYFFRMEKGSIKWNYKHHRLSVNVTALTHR

[3] = molecular target: human Siglec-9 protein (recombinant; construct not stated) (human) (UniProt Q9Y336); assay: ELISA on recombinant Siglec-9
[4] = molecular target: human Siglec-9 expressed on cells (human) (UniProt Q9Y336); assay: flow cytometry on human M1-like and M2-like macrophages expressing Siglec-9
[5] = molecular target: recombinant Siglec-9 (SinoBiological, 30109-H03H) (human) (UniProt Q9Y336); assay: ELISA on coated recombinant Siglec-9, OD against antibody concentration (FIG. 11)

binding [1]: binds
B1: CB6B3 in Fab format (Fab, V domains shown)
VH: EVQLQQSGAEVVRPGALVKLSCKAAGFNIKDYFIHWVKQRPEQGLEWIGLIDPENDNTMYDPRFQVKASLTADTSSNTAYLQLSRLTSEDAAVYYCASTVVARSFDYWGQGTTLTVSS
VL: SIVMTQTPKFLLVSAGDRVTITCKASQSVSNDVAWYQQKSGQSPKLLIYYTSNRYTGVPDRFTGSGYGTDFTFTISTVQAEDLAVYFCQQDFRSPFTFGAGTKLELK

binding [2]: binds
B2: anti-Siglec-9 monoclonal antibody clone CB6B3 (parental mouse antibody) (antibody, V domains shown)
VH: EVQLQQSGAEVVRPGALVKLSCKAAGFNIKDYFIHWVKQRPEQGLEWIGLIDPENDNTMYDPRFQVKASLTADTSSNTAYLQLSRLTSEDAAVYYCASTVVARSFDYWGQGTTLTVSS
VL: SIVMTQTPKFLLVSAGDRVTITCKASQSVSNDVAWYQQKSGQSPKLLIYYTSNRYTGVPDRFTGSGYGTDFTFTISTVQAEDLAVYFCQQDFRSPFTFGAGTKLELK

binding [2]: binds
B3: anti-Siglec-9 monoclonal antibody clone ED2D5 (antibody, V domains shown)
VH: EVQLVESGGGLVKPGGSLKLSCAASGFTFSDYYMYWVRQTPEKRLEWVATISDGGSDTYYPDNMKGRFTISRDNAKNNLYLQMSSLKSEDTAMYYCTRDPDYDDGRFAYWGQGTLVTVSA
VL: DIVMTQSHKFMSTSVGDRVSITCKASQDVGTVVAWYQQKSGQSPKLLIYWSSTRHTGVPDRFTGSGSGTDFTLTISNVQSEDLADYFCQQYIDYPLSFGAGTKLELK

binding [3]: binds | binding [4]: binds | binding [5]: binds
B4: humanised CB6B3 (huCB6B3) (antibody, V domains shown)
VH: EVQLVQSGAEVKKPGATVKISCKVSGYTFTDYFIHWVQQAPGKGLEWMGLIDPENDNTMYDPRFQVRVTITADTSTDTAYMELSSLRSEDTAVYYCASTVVARSFDYWGQGTTVTVSS
VL: AIQMTQSPSSLSASVGDRVTITCKASQSVSNDVAWYQQKPGKAPKLLIYYTSNRYTGVPSRFSGSGSGTDFTLTISSLQPEDFATYYCQQDFRSPFTFGGGTKVEIK

— patent publication US20260022170A1
